These are yes or no findings as the source states them, for the method shown. Binding calls can cover weak binding; strength is not graded here.
Biological target: full-length TBEV NS5 fused to the Gal4 DNA-binding domain (tick-borne encephalitis virus (TBEV)) (UniProt Q01299)
Assay: two-hybrid

| Substance | binding |
| --- | --- |
| C-terminal domain of bovine TYK2 fused to the Gal4 activation domain (from UniProt F1MCX4) (domain or fragment) | binds |
| C-terminal domain of goat TYK2 fused to the Gal4 activation domain (from UniProt A0A452F668) (domain or fragment) | binds |

From paper doi:10.1101/2023.09.07.556670
